Some results were stated once for a whole list of compounds, not compound by compound.
Biological target: T1, histamine H3 receptor (Homo sapiens, UniProt Q9Y5N1)
T1 construct: expressed in transfected cells; host or cells: CHO K1 cells carrying pSwitch, transfected with pGeneH3 and induced with mifepristone; clone 3H3; membranes
Assay: Histamine H3 functional antagonist assay ([35S]-GTPγS SPA on CHO membranes)
Format: biochemical
Details: histamine at EC80

Protein sequences, listed by entry. Tags and fused reporters are not part of them.
UniProt Q9Y5N1, whole entry, species assumed: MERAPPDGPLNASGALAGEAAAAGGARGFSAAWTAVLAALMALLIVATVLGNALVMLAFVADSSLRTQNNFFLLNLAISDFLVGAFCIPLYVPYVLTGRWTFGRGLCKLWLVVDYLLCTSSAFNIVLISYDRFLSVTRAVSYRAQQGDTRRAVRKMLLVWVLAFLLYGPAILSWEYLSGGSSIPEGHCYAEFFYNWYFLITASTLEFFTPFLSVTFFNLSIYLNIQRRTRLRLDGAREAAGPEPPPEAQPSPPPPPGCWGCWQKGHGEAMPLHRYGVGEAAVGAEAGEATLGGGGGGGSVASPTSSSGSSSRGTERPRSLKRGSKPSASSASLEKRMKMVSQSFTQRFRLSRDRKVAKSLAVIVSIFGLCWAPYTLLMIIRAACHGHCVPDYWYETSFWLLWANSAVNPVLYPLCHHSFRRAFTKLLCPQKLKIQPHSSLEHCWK

| SMILES | average pKi (pKb) at H3 |
| --- | --- |
| O=c1c2ccccc2c(Cc2ccc(F)cc2)nn1C[C@H]1CCCN1CCCCc1ccc(OCCCN2CCCCCC2)cc1 [Example 9, 4-[(4-Fluorophenyl)methyl]-2-({(2R)-1-[4-(4-{[3-(hexahydro-1H-azepin-1-yl)propyl]oxy}phenyl)butyl]-2-pyrrolidinyl}methyl)-1(2H)-phthalazinone] | > 9 |
| O=c1c2ccccc2c(Cc2ccc(Cl)cc2)nn1CCNCCc1ccc(OCCCN2CCCCCC2)cc1 [Example 2, 4-[(4-Chlorophenyl)methyl]-2-(2-{[2-(4-{[3-(hexahydro-1H-azepin-1-yl)propyl]oxy}phenyl)ethyl]amino}ethyl)-1(2H)-phthalazinone] | > 9 |

— patent US20080039444A1, “COMPOUNDS” (GLAXO GROUP LIMITED, priority 2006, published 2008)
